Measurements as given in publication PMC7819943, “Rice protein-binding microarrays: a tool to detect cis-acting elements near promoter regions in rice”.
This is one part of the list.

Chains of the proteins cited; added tags and fusions are not shown.
UniProt Q0JBA9, entry or part of it: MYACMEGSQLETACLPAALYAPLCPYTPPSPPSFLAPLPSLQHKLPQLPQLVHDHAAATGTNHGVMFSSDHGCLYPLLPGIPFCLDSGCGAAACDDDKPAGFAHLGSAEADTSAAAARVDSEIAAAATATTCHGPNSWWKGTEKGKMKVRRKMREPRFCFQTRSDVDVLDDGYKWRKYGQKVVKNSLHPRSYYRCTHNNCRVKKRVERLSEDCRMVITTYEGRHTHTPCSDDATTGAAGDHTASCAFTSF

Biological target: OsWRKY34 (Oryza sativa, UniProt Q0JBA9 1-250)
Test: protein-binding microarray (RPBM); PBS, 2% BSA, 51.3 ng/ul salmon testes DNA, 50 uM zinc acetate, 200 nM TF, 25 C, 1 h; high values mean tight binding
Details: protein: recombinant; tags: N-terminal polyhistidine and DsRed monomer fusion (pET32a); label: CyDye5-dUTP incorporated in the synthesized complementary strand; 3' TTTTT single-stranded linker to array surface; dsDNA, one strand shown
In short: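 Transcription factors, each fused N-terminally to a polyhistidine tag and DsRed, were expressed in E. coli BL21-CodonPlus and purified on Ni–NTA. A custom Agilent array was made double-stranded by primer extension with Cy5-dUTP and blocked with 2% BSA. It was incubated with 200 nM protein in PBS, 2% BSA, salmon testes DNA and 50 µM zinc acetate at 25 °C for 1 h, then washed. The binding signal is per-feature fluorescence intensity (arbitrary units) read on an Axon 4000B scanner.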

Row | Sequence | binding signal
1 | CGCCGTCGCCGCCGCCGCCGCCGCCATCTCCACCTCCGCCCGGAGTCACCTAGTGCAG | 8500 fluorescence intensity (a.u.)
2 | ATCCGTTGCTCCGTTTTACATGTGTGAAGGGTTAGTTTCCCGGAGTCACCTAGTGCAG | 9320 fluorescence intensity (a.u.)
3 | CCTTCCAAGATCCCAACCCCTTTTCTTCTTTTTTTTTGTTCGGAGTCACCTAGTGCAG | 11400 fluorescence intensity (a.u.)
4 | TTCTACTCGCTGACCTTGCTGCTATGCCTCGCGTGCTCGCCGGAGTCACCTAGTGCAG | 10900 fluorescence intensity (a.u.)
5 | GGGCCGATCTGGACGCCGTTGACCCGCCCGATTCGGCTCGCGGAGTCACCTAGTGCAG | 9200 fluorescence intensity (a.u.)
6 | GGTGCACTGAGGAGAGGAGGGGTGGGTAAGGAGCAGATGACGGAGTCACCTAGTGCAG | 13100 fluorescence intensity (a.u.)
7 | TACGCTATATCACAATTCTTATTTTGCATGCGGTTCAAGTCGGAGTCACCTAGTGCAG | 9490 fluorescence intensity (a.u.)
8 | AATCAACCTTGTTGTTCTCTGTAGCGCTTTCCTTTGGATTCGGAGTCACCTAGTGCAG | 9560 fluorescence intensity (a.u.)
9 | CATCGCATCTACTGATTCTGCAGCGCAATATCAGTACCAACGGAGTCACCTAGTGCAG | 8750 fluorescence intensity (a.u.)
10 | AATATCTTCTATAGGTTCGTGTTCGAGACGGATCATCACACGGAGTCACCTAGTGCAG | 8600 fluorescence intensity (a.u.)
11 | CGTTCGCATCCACCACCAGTGCTCCGCCTGCCAGATCCATCGGAGTCACCTAGTGCAG | 9140 fluorescence intensity (a.u.)
12 | TTGGGCTGTGTTATATCTTCTGAGTTGCACACCTGCATTGCGGAGTCACCTAGTGCAG | 8210 fluorescence intensity (a.u.)
13 | CAGCGATCGCGTGTGTTCTTGGTTCCAATTCGTCGCCTGACGGAGTCACCTAGTGCAG | 8440 fluorescence intensity (a.u.)
14 | ATCTCTTTACCTCAATCTCGCATATATCCTAGCACCAACGCGGAGTCACCTAGTGCAG | 8570 fluorescence intensity (a.u.)
15 | ATTCTTCTAATATATTGACGTGTAATTCTTCTGCGCATTCCGGAGTCACCTAGTGCAG | 9640 fluorescence intensity (a.u.)
16 | GCTGACATGTGGGCCCCACGTTTTTTTTAAATTTTTTTGCCGGAGTCACCTAGTGCAG | 9020 fluorescence intensity (a.u.)
17 | CTATCTGTGCACAACGTTTGACGGTTCGTCTTATTTAAAACGGAGTCACCTAGTGCAG | 8640 fluorescence intensity (a.u.)
18 | GCCTTCAATCTTTAAAACACGTCGTTTTGCACAAAGTTCCCGGAGTCACCTAGTGCAG | 8770 fluorescence intensity (a.u.)
19 | CATATTTACTATCTTTGTACGATCTACATCTCTTCCAAATCGGAGTCACCTAGTGCAG | 10800 fluorescence intensity (a.u.)
20 | TTCCTTTTGCTTGCTGCCTTCCGCCAGATTTTTCCTCTTCCGGAGTCACCTAGTGCAG | 10100 fluorescence intensity (a.u.)
21 | TATAGATATCACGTATGTTGTTGCCTAGATCATCTGATTCCGGAGTCACCTAGTGCAG | 9110 fluorescence intensity (a.u.)

Row | Sequence | binding signal
22 | CGACTCTTCCTCGCTTTCTCGCTTCTCTCTCTGCGCCACTCGGAGTCACCTAGTGCAG | 12400 fluorescence intensity (a.u.)
23 | CTTCACACTTCATTCATCAAATCCAACGGCTCATATTCCTCGGAGTCACCTAGTGCAG | 12700 fluorescence intensity (a.u.)
24 | CACCCTGCCGGACTCCTCGCCTGTGTTGCACCAGCTCTCCCGGAGTCACCTAGTGCAG | 8230 fluorescence intensity (a.u.)
25 | GTACTTGCCCGCGAGACTCCTACCACTCTCTGATCCCTATCGGAGTCACCTAGTGCAG | 9370 fluorescence intensity (a.u.)
26 | AAATGCGCGCCAATCCCTTTCTTGTTTGTTTAAACCTCTCCGGAGTCACCTAGTGCAG | 10400 fluorescence intensity (a.u.)
27 | AGTCTTTACTCTCCTCAAATTCTTGTGTTTTTTCTGTGGTCGGAGTCACCTAGTGCAG | 8930 fluorescence intensity (a.u.)
28 | AAGTTCCTATTTACCCAGCTGCATTCGCCGATTGTTTAGTCGGAGTCACCTAGTGCAG | 9320 fluorescence intensity (a.u.)
29 | ACCCAATACACAAGGACCGGCCCATTTATTCCCCAAAGGCCGGAGTCACCTAGTGCAG | 8660 fluorescence intensity (a.u.)
30 | ATTATTCAGTGTTGCAGTATCAACTAAGAGCTCTATTTTCCGGAGTCACCTAGTGCAG | 8310 fluorescence intensity (a.u.)
31 | TTGACGCCGTTGACTTTTTAATACATGTTTGACCATTCGTCGGAGTCACCTAGTGCAG | 44300 fluorescence intensity (a.u.)
32 | CTCTCTCGCGCGCGCTTGCCCCGCCATATATACCGGCGAGCGGAGTCACCTAGTGCAG | 8690 fluorescence intensity (a.u.)
33 | TCCCATCGAAGCTCCATCCAAGGTTTTTCCTCCAATATTTCGGAGTCACCTAGTGCAG | 11400 fluorescence intensity (a.u.)
34 | TGCTTGGGGATTCTGAATCTGTTCTTGTTGTCACTTGTCACGGAGTCACCTAGTGCAG | 8100 fluorescence intensity (a.u.)
35 | AATCATTGGTCAACCCAACTTGATCATGGCAACCTAAAAGCGGAGTCACCTAGTGCAG | 9020 fluorescence intensity (a.u.)
36 | GTCCTGGTTTTTATCATCCAATGGTCCTGAGTTCTATAATCGGAGTCACCTAGTGCAG | 8700 fluorescence intensity (a.u.)
37 | ACCCGCCCGCGTGCGCGCGCCCAACCGCAACATCCCTCGACGGAGTCACCTAGTGCAG | 8250 fluorescence intensity (a.u.)
38 | ACCATGTTGACTTTTTGCACATTTATAGAATCTTTTGGTACGGAGTCACCTAGTGCAG | 21800 fluorescence intensity (a.u.)
39 | ACCTCATATGTTTAATACAACTTTTTAGTTCTTCTTAATTCGGAGTCACCTAGTGCAG | 11100 fluorescence intensity (a.u.)
40 | TGTTGTGTAAGAAGGCCACATAAAATTTTTCATATTTTTCCGGAGTCACCTAGTGCAG | 9230 fluorescence intensity (a.u.)
41 | AATTATGCTTCTGACTTCTGTTGTGGCTTGATTGATCCGTCGGAGTCACCTAGTGCAG | 9430 fluorescence intensity (a.u.)
42 | TTTTGGACTTGATTTTTTTCTCAATTATAGTTTGTTTATTCGGAGTCACCTAGTGCAG | 8910 fluorescence intensity (a.u.)

A few values from the entries so far:
binding signal, CACCCTGCCGGACTCCTCGCCTGTGTTGCACCAGCTCTCCCGGAGTCACCTAGTGCAG reads 8230 fluorescence intensity (a.u.)
binding signal, AAGTTCCTATTTACCCAGCTGCATTCGCCGATTGTTTAGTCGGAGTCACCTAGTGCAG reads 9320 fluorescence intensity (a.u.)
